The values below come from patent publication US12729225B2, “Non-canonical SWI/SNF complex and uses thereof” (Dana-Farber Cancer Institute, Inc., priority 2018, dated 2026).

The test system of this data set is mSWI/SNF complexes. Briefly: mSWI/SNF complex purification with HA-tagged baits and mass spectrometry (peptide counts). Also noted: species or system human.
Setting [1] is: 293_HA-BRD7 bait purification, mass spectrometry, total peptide count per identified protein.
Setting [2] is: 293_HA-BRD7 bait purification, mass spectrometry, unique peptide count per identified protein.
Setting [3] is: total peptide count of the co-purified protein, 293_HA-BRD9 (HA-BRD9 bait, mass spectrometry), Table 3b.
[4] abbreviates: unique peptide count of the co-purified protein, 293_HA-BRD9 (HA-BRD9 bait, mass spectrometry), Table 3b.
Where [5] appears, read: 293_HA-BRD7: HA-BRD7 bait purification, total peptide count per co-purified protein.
The mark [6] stands for this setting: 293_HA-BRD7: HA-BRD7 bait purification, unique peptide count per co-purified protein.

B1: DDX3X (protein, UniProt O00571 2-662, looked up)
ATP-dependent RNA helicase …: SHVAVENALGLDQQFAGLDLNSSDNQSGGSTASKGRYIPPHLRNREATKGFYDKDSSGWSSSKDKDAYSSFGSRSDSRGKSSFFSDRGSGSRGRFDDRGRSDYDGIGSRGDRSGFGKFERGGNSRWCDKSDEDDWSKPLPPSERLEQELFSGGNTGINFEKYDDIPVEATGNNCPPHIESFSDVEMGEIIMGNIELTRYTRPTPVQKHAIPIIKEKRDLMACAQTGSGKTAAFLLPILSQIYSDGPGEALRAMKENGRYGRRKQYPISLVLAPTRELAVQIYEEARKFSYRSRVRPCVVYGGADIGQQIRDLERGCHLLVATPGRLVDMMERGKIGLDFCKYLVLDEADRMLDMGFEPQIRRIVEQDTMPPKGVRHTMMFSATFPKEIQMLARDFLDEYIFLAVGRVGSTSENITQKVVWVEESDKRSFLLDLLNATGKDSLTLVFVETKKGADSLEDFLYHEGYACTSIHGDRSQRDREEALHQFRSGKSPILVATAVAARGLDISNVKHVINFDLPSDIEEYVHRIGRTGRVGNLGLATSFFNERNINITKDLLDLLVEAKQEVPSWLENMAYEHHYKGSSRGRSKSSRFSGGFGARDYRQSSGASSSSFSSSRASSSRSGGGGHGSSRGFGGGGYGGFYNSDGYGGNYNSQGVDWWGN
For B1, the Total reads like this: under setting [1], 1; under setting [3], 1. Further, the Unique reads like this: under setting [2], 1; under setting [4], 1.

B2: ATP2A1 (protein, UniProt O14983 1-1001, looked up)
Sarcoplasmic/endoplasmic …: MEAAHAKTTEECLAYFGVSETTGLTPDQVKRNLEKYGLNELPAEEGKTLWELVIEQFEDLLVRILLLAACISFVLAWFEEGEETITAFVEPFVILLILIANAIVGVWQERNAENAIEALKEYEPEMGKVYRADRKSVQRIKARDIVPGDIVEVAVGDKVPADIRILAIKSTTLRVDQSILTGESVSVIKHTEPVPDPRAVNQDKKNMLFSGTNIAAGKALGIVATTGVGTEIGKIRDQMAATEQDKTPLQQKLDEFGEQLSKVISLICVAVWLINIGHFNDPVHGGSWFRGAIYYFKIAVALAVAAIPEGLPAVITTCLALGTRRMAKKNAIVRSLPSVETLGCTSVICSDKTGTLTTNQMSVCKMFIIDKVDGDICLLNEFSITGSTYAPEGEVLKNDKPVRPGQYDGLVELATICALCNDSSLDFNEAKGVYEKVGEATETALTTLVEKMNVFNTDVRSLSKVERANACNSVIRQLMKKEFTLEFSRDRKSMSVYCSPAKSSRAAVGNKMFVKGAPEGVIDRCNYVRVGTTRVPLTGPVKEKIMAVIKEWGTGRDTLRCLALATRDTPPKREEMVLDDSARFLEYETDLTFVGVVGMLDPPRKEVTGSIQLCRDAGIRVIMITGDNKGTAIAICRRIGIFGENEEVADRAYTGREFDDLPLAEQREACRRACCFARVEPSHKSKIVEYLQSYDEITAMTGDGVNDAPALKKAEIGIAMGSGTAVAKTASEMVLADDNFSTIVAAVEEGRAIYNNMKQFIRYLISSNVGEVVCIFLTAALGLPEALIPVQLLWVNLVTDGLPATALGFNPPDLDIMDRPPRSPKEPLISGWLFFRYMAIGGYVGAATVGAAAWWFLYAEDGPHVNYSQLTHFMQCTEDNTHFEGIDCEVFEAPEPMTMALSVLVTIEMCNALNSLSENQSLLRMPPWVNIWLLGSICLSMSLHFLILYVDPLPMIFKLRALDLTQWLMVLKISLPVIGLDEILKFVARNYLEDPEDERRK
For B2, the Total by setting is: under setting [5], 4; under setting [3], 1. Also, the Unique runs as follows: under setting [6], 4; under setting [4], 1.

B3: SCGB2A1 (protein, UniProt O75556 19-95, looked up)
Mammaglobin-B: DSGCKLLEDMVEKTINSDISIPEYKELLQEFIDSDAAAEAMGKFKQCFLNQSHRTLKNFGLMMHTVYDSIWCNMKSN
As for B3, under setting [3], the Total turned out to be 1. For the same molecule, the Unique under setting [4] is 1.

B4: SLC12A6 (protein, UniProt Q9UHW9 1-1150, looked up)
Solute carrier family 12 …: MHPPETTTKMASVRFMVTPTKIDDIPGLSDTSPDLSSRSSSRVRFSSRESVPETSRSEPMSEMSGATTSLATVALDPPSDRTSHPQDVIEDLSQNSITGEHSQLLDDGHKKARNAYLNNSNYEEGDEYFDKNLALFEEEMDTRPKVSSLLNRMANYTNLTQGAKEHEEAENITEGKKKPTKTPQMGTFMGVYLPCLQNIFGVILFLRLTWVVGTAGVLQAFAIVLICCCCTMLTAISMSAIATNGVVPAGGSYFMISRALGPEFGGAVGLCFYLGTTFAAAMYILGAIEIFLVYIVPRAAIFHSDDALKESAAMLNNMRVYGTAFLVLMVLVVFIGVRYVNKFASLFLACVIVSILAIYAGAIKSSFAPPHFPVCMLGNRTLSSRHIDVCSKTKEINNMTVPSKLWGFFCNSSQFFNATCDEYFVHNNVTSIQGIPGLASGIITENLWSNYLPKGEIIEKPSAKSSDVLGSLNHEYVLVDITTSFTLLVGIFFPSVTGIMAGSNRSGDLKDAQKSIPIGTILAILTTSFVYLSNVVLFGACIEGVVLRDKFGDAVKGNLVVGTLSWPSPWVIVIGSFFSTCGAGLQSLTGAPRLLQAIAKDNIIPFLRVFGHSKANGEPTWALLLTAAIAELGILIASLDLVAPILSMFFLMCYLFVNLACALQTLLRTPNWRPRFRYYHWALSFMGMSICLALMFISSWYYAIVAMVIAGMIYKYIEYQGAEKEWGDGIRGLSLSAARFALLRLEEGPPHTKNWRPQLLVLLKLDEDLHVKHPRLLTFASQLKAGKGLTIVGSVIVGNFLENYGEALAAEQTIKHLMEAEKVKGFCQLVVAAKLREGISHLIQSCGLGGMKHNTVVMGWPNGWRQSEDARAWKTFIGTVRVTTAAHLALLVAKNISFFPSNVEQFSEGNIDVWWIVHDGGMLMLLPFLLKQHKVWRKCSIRIFTVAQLEDNSIQMKKDLATFLYHLRIEAEVEVVEMHDSDISAYTYERTLMMEQRSQMLRHMRLSKTERDREAQLVKDRNSMLRLTSIGSDEDEETETYQEKVHMTWTKDKYMASRGQKAKSMEGFQDLLNMRPDQSNVRRMHTAVKLNEVIVNKSHEAKLVLLNMPGPPRNPEGDENYMEFLEVLTEGLERVLLVRGGGSEVITIYS
Turning to B4, the Total under setting [3] was determined as 1. Also, the Unique under setting [4] was found to be 1.

B5: SLC25A3 (protein, UniProt Q00325 50-362, looked up)
Solute carrier family 25 …: AVEEQYSCDYGSGRFFILCGLGGIISCGTTHTALVPLDLVKCRMQVDPQKYKGIFNGFSVTLKEDGVRGLAKGWAPTFLGYSMQGLCKFGFYEVFKVLYSNMLGEENTYLWRTSLYLAASASAEFFADIALAPMEAAKVRIQTQPGYANTLRDAAPKMYKEEGLKAFYKGVAPLWMRQIPYTMMKFACFERTVEALYKFVVPKPRSECSKPEQLVVTFVAGYIAGVFCAIVSHPADSVVSVLNKEKGSSASLVLKRLGFKGVWKGLFARIIMIGTLTALQWFIYDSVKVYFRLPRPPPPEMPESLKKKLGLTQ
As to B5, the Total by setting is: under setting [5], 10; under setting [3], 1. The molecule also showed a Unique under setting [6] of 10 and a Unique under setting [4] of 1.

B6: INA (protein, UniProt Q16352 1-499, looked up)
Alpha-internexin: MSFGSEHYLCSSSSYRKVFGDGSRLSARLSGAGGAGGFRSQSLSRSNVASSAACSSASSLGLGLAYRRPPASDGLDLSQAAARTNEYKIIRTNEKEQLQGLNDRFAVFIEKVHQLETQNRALEAELAALRQRHAEPSRVGELFQRELRDLRAQLEEASSARSQALLERDGLAEEVQRLRARCEEESRGREGAERALKAQQRDVDGATLARLDLEKKVESLLDELAFVRQVHDEEVAELLATLQASSQAAAEVDVTVAKPDLTSALREIRAQYESLAAKNLQSAEEWYKSKFANLNEQAARSTEAIRASREEIHEYRRQLQARTIEIEGLRGANESLERQILELEERHSAEVAGYQDSIGQLENDLRNTKSEMARHLREYQDLLNVKMALDIEIAAYRKLLEGEETRFSTSGLSISGLNPLPNPSYLLPPRILSATTSKVSSTGLSLKKEEEEEEASKVASKKTSQIGESFEEILEETVISTKKTEKSNIEETTISSQKI
Take B6: the Total stood at 1 under setting [1] and 1 under setting [3]. Also, the Unique runs as follows: under setting [2], 1; under setting [4], 1.

B7: EPB41 (protein, UniProt P11171 1-864, looked up)
Protein 4.1: MTTEKSLVTEAENSQHQQKEEGEEAINSGQQEPQQEESCQTAAEGDNWCEQKLKASNGDTPTHEDLTKNKERTSESRGLSRLFSSFLKRPKSQVSEEEGKEVESDKEKGEGGQKEIEFGTSLDEEIILKAPIAAPEPELKTDPSLDLHSLSSAETQPAQEELREDPDFEIKEGEGLEECSKIEVKEESPQSKAETELKASQKPIRKHRNMHCKVSLLDDTVYECVVEKHAKGQDLLKRVCEHLNLLEEDYFGLAIWDNATSKTWLDSAKEIKKQVRGVPWNFTFNVKFYPPDPAQLTEDITRYYLCLQLRQDIVAGRLPCSFATLALLGSYTIQSELGDYDPELHGVDYVSDFKLAPNQTKELEEKVMELHKSYRSMTPAQADLEFLENAKKLSMYGVDLHKAKDLEGVDIILGVCSSGLLVYKDKLRINRFPWPKVLKISYKRSSFFIKIRPGEQEQYESTIGFKLPSYRAAKKLWKVCVEHHTFFRLTSTDTIPKSKFLALGSKFRYSGRTQAQTRQASALIDRPAPHFERTASKRASRSLDGAAAVDSADRSPRPTSAPAITQGQVAEGGVLDASAKKTVVPKAQKETVKAEVKKEDEPPEQAEPEPTEAWKVEKTHIEVTVPTSNGDQTQKLAEKTEDLIRMRKKKRERLDGENIYIRHSNLMLEDLDKSQEEIKKHHASISELKKNFMESVPEPRPSEWDKRLSTHSPFRTLNINGQIPTGEGPPLVKTQTVTISDNANAVKSEIPTKDVPIVHTETKTITYEAAQTDDNSGDLDPGVLLTAQTITSETPSSTTTTQITKTVKGGISETRIEKRIVITGDADIDHDQVLVQAIKEAKEQHPDMSVTKVVVHQETEIADE
Regarding B7, the Total under setting [5] stood at 9 and the Total under setting [3] was 1. Also, the Unique is, setting by setting: under setting [6], 9; under setting [4], 1.

B8: TXN (protein, UniProt P10599 2-105, looked up)
Thioredoxin: VKQIESKTAFQEALDAAGDKLVVVDFSATWCGPCKMIKPFFHSLSEKYSNVIFLEVDVDDCQDVASECEVKCMPTFQFFKKGQKVGEFSGANKEKLEATINELV
The molecule B8 registered a Total under setting [3] of 1. Under setting [4], this molecule had a Unique of 1.
